# According to article PMC7819943, “Rice protein-binding microarrays: a tool to detect cis-acting elements near promoter regions in rice”:
# This is one part of the list.
# Target: T1, OsSMF1 (Oryza sativa, UniProt Q6ZLB0 1-436)
# T1 sequence: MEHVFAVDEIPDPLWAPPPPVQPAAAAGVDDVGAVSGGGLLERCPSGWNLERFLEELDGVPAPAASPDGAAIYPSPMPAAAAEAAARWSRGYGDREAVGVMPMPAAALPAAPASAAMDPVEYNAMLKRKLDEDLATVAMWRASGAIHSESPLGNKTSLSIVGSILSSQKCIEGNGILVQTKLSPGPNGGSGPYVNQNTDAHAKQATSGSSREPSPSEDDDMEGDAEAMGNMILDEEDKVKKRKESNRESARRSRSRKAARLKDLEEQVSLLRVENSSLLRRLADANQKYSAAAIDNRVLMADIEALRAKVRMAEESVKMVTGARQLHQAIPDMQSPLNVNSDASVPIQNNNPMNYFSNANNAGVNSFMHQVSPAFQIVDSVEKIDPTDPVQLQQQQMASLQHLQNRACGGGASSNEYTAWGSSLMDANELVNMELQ
# Assay: protein-binding microarray (RPBM); PBS, 2% BSA, 51.3 ng/ul salmon testes DNA, 50 uM zinc acetate, 200 nM TF, 25 C, 1 h; high values mean tight binding
# Conditions: protein: recombinant; tags: N-terminal polyhistidine and DsRed monomer fusion (pET32a); chain copies: 2; label: CyDye5-dUTP incorporated in the synthesized complementary strand; 3' TTTTT single-stranded linker to array surface; dsDNA, one strand shown
# Summary of the method: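 Polyhistidine-tagged DsRed fusions of transcription factors, joined at the N-terminus, were expressed in E. coli BL21-CodonPlus and isolated on Ni–NTA. They were incubated at 200 nM for 1 h at 25 °C on a custom Agilent array, double-stranded and BSA-blocked, in PBS with 2% BSA, salmon testes DNA and 50 µM zinc acetate. The binding signal is per-feature fluorescence intensity (arbitrary units) read on an Axon 4000B scanner after washing.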
row,Sequence,binding signal
1,GCCCTTTACAGTGCTCCTACGTGGGCGAGTTGCCAAGTGCCGGAGTCACCTAGTGCAG,3430 fluorescence intensity (a.u.)
2,ATAATTTTATTGCAATAAACCTTATAGTATAGTATATGAGCGGAGTCACCTAGTGCAG,21600 fluorescence intensity (a.u.)
3,GCCATCTAGTTCCTCCTACCACCACGTCCTCTTTTCCTGCCGGAGTCACCTAGTGCAG,5520 fluorescence intensity (a.u.)
4,CCGGGCGTTGTGTTTGGCTGGCCGTACGTCCCCTTCGACTCGGAGTCACCTAGTGCAG,3370 fluorescence intensity (a.u.)
5,TATTTAAGTCAGTACTAAAGCACACATGTACAAATTTTACCGGAGTCACCTAGTGCAG,4160 fluorescence intensity (a.u.)
6,CTTCCATTCCAACCCCAATTAGCACTAGATCGTCATCGCTCGGAGTCACCTAGTGCAG,3200 fluorescence intensity (a.u.)
7,TTTCAGCCCGGTTTTATCTGACGTGGTGGCTGAATCAGCACGGAGTCACCTAGTGCAG,14500 fluorescence intensity (a.u.)
8,GTTTTATGGTTGGAGGTCATGAATCATACTCGTGTCATAGCGGAGTCACCTAGTGCAG,7410 fluorescence intensity (a.u.)
9,AGCGGGCCTCGCCAGCGCCGCATGCCGCCTCTGGCTCCGTCGGAGTCACCTAGTGCAG,3620 fluorescence intensity (a.u.)
10,TCGGCGCCGGAGTCAACCGTTTTCAGGACAGCATCGGCACCGGAGTCACCTAGTGCAG,3730 fluorescence intensity (a.u.)
11,TTGGCTCTGTTTACACGTATGATGCTTTGTCAGGTTGGAGCGGAGTCACCTAGTGCAG,11300 fluorescence intensity (a.u.)
12,CATAATTAATATCTAGTCCCAACTATCATACATATATGTACGGAGTCACCTAGTGCAG,22900 fluorescence intensity (a.u.)
13,TCGCATACATGAGCCGGTTGCGTTCTGCCCCGGTTGTTTGCGGAGTCACCTAGTGCAG,4130 fluorescence intensity (a.u.)
14,CAACCCCACAACCGTCAACTCCAGCTCGGCTTCTCCTCCTCGGAGTCACCTAGTGCAG,4260 fluorescence intensity (a.u.)
15,ACTTGGTCAAGACCACCACGTAAGCACCACGTAGGACAAACGGAGTCACCTAGTGCAG,15600 fluorescence intensity (a.u.)
16,AGCTTCGCACTGGGCACGTGTGCCTGTGTGTGGGAGTCAGCGGAGTCACCTAGTGCAG,4070 fluorescence intensity (a.u.)
17,TCGATGAATCTGTCCACGTCCCGTATTAAGTTTGTTTATTCGGAGTCACCTAGTGCAG,6190 fluorescence intensity (a.u.)
18,GAAACATTGCGTGCTTTCGCGCACCTGGTGTTATTTATTCCGGAGTCACCTAGTGCAG,3540 fluorescence intensity (a.u.)
19,CACAACCACAAGGTTGTCATTACCTCTATCATCGGTGTAACGGAGTCACCTAGTGCAG,3380 fluorescence intensity (a.u.)
20,GGCTGCCACGCCCGCGCCGCGCGCTTCGGCGCTGGCGCCGCGGAGTCACCTAGTGCAG,3670 fluorescence intensity (a.u.)
21,TAATTTAACTTTGATCAAAGTTAAAACGTGTTACTGGACGCGGAGTCACCTAGTGCAG,11500 fluorescence intensity (a.u.)
22,CATACACTATGGGTAGTCGTCATCGGACATTGGGTGCCGGCGGAGTCACCTAGTGCAG,3790 fluorescence intensity (a.u.)
23,GCGCTCGCACCACGTGGCTGGCGTCGCCTGGGCGCCCATCCGGAGTCACCTAGTGCAG,10600 fluorescence intensity (a.u.)
24,CCGCGAGTTCTGACGCAACTGATAAGTGATAACCAACCAACGGAGTCACCTAGTGCAG,3310 fluorescence intensity (a.u.)
25,ACAAACATTTGCCACTCCGCGCCACGTCACGCTAACTGACCGGAGTCACCTAGTGCAG,13900 fluorescence intensity (a.u.)
26,GAGCAATAGGGAAACACCTCACACCCGATGTTGGGTGTTGCGGAGTCACCTAGTGCAG,4320 fluorescence intensity (a.u.)
27,ACACGAACGTGACACCGTGTTGTGTCGACCACCACCGTCGCGGAGTCACCTAGTGCAG,3600 fluorescence intensity (a.u.)

# In another format: entries from further up
row	Sequence	binding signal
2	ATAATTTTATTGCAATAAACCTTATAGTATAGTATATGAGCGGAGTCACCTAGTGCAG	21600 fluorescence intensity (a.u.)
14	CAACCCCACAACCGTCAACTCCAGCTCGGCTTCTCCTCCTCGGAGTCACCTAGTGCAG	4260 fluorescence intensity (a.u.)

# Additional records follow.

row,Sequence,binding signal
1,ATTCCACCCCGACTTGCTGACCTCGACAGCACCTGACTTCCGGAGTCACCTAGTGCAG,3720 fluorescence intensity (a.u.)
2,CCAGTTTTGTCCCACGTGGCGGCTGGCTCAGCGTGGGACCCGGAGTCACCTAGTGCAG,16800 fluorescence intensity (a.u.)
3,AGGTCAAGTTCGAGTTCAGCTTCGCCGAGCAGGCGGCCAACGGAGTCACCTAGTGCAG,29300 fluorescence intensity (a.u.)
4,TTTCGCACCCTCCACCTCCCCTATTATAGCGTGTCGGACACGGAGTCACCTAGTGCAG,4120 fluorescence intensity (a.u.)
5,TTTTCTGTCGATCGGAATTGGTCATCTTTGGTTGGTTCAGCGGAGTCACCTAGTGCAG,3580 fluorescence intensity (a.u.)
6,GAACACTGGCATACATCGCCGATCAGGATGACGTGGGCAACGGAGTCACCTAGTGCAG,11500 fluorescence intensity (a.u.)
7,ATGGTACGTCGTCCGTATTTAAGTCAGCTTTTAAGTTCGTCGGAGTCACCTAGTGCAG,3780 fluorescence intensity (a.u.)
8,GGGGTAGTATATATAAAATCCAATTTGTCACGTGTCAACCCGGAGTCACCTAGTGCAG,4420 fluorescence intensity (a.u.)
9,AGTTCAGATTTGACATATACAGATTCTAGACATTACCAGTCGGAGTCACCTAGTGCAG,20400 fluorescence intensity (a.u.)
10,GCCTAATTACTCGTGCCGCTCTCCTCATTATGACGCCACCCGGAGTCACCTAGTGCAG,3770 fluorescence intensity (a.u.)
11,TAACCGTCTATGCATTCCAGTTGGTTCCGTTCGTCTTTTGCGGAGTCACCTAGTGCAG,3160 fluorescence intensity (a.u.)
12,TGAAAATCGCATACTAATTAGCTATTAGTCATGAGCTCTTCGGAGTCACCTAGTGCAG,3590 fluorescence intensity (a.u.)
13,TGGAAAGTGCGTAGTTGATACAGAATCCAGTCAGTTCCCACGGAGTCACCTAGTGCAG,4780 fluorescence intensity (a.u.)
14,GCGGTGACGTCCTCGCGCTCCCCGTCAGCGCCATCCACGTCGGAGTCACCTAGTGCAG,10000 fluorescence intensity (a.u.)
15,GCGCCTCTGTCCGCCTCCGCCGCTGCCCTCCGCCACCTCGCGGAGTCACCTAGTGCAG,3530 fluorescence intensity (a.u.)
16,CTCTATGGCCCCGTCACGTTCTCCGCCTTTTCCTTTCACACGGAGTCACCTAGTGCAG,6530 fluorescence intensity (a.u.)
17,TAGCAAATGGTGTTGACGATGATAGGCAACATTAGACGCTCGGAGTCACCTAGTGCAG,3150 fluorescence intensity (a.u.)
18,GGTCCCTAAACTTGTACTGCTGTGTCATCCCGGTCCCTAACGGAGTCACCTAGTGCAG,5050 fluorescence intensity (a.u.)
19,CTCTCCTACAATAGGATGGACTATGTGACGTAGCACAATGCGGAGTCACCTAGTGCAG,7860 fluorescence intensity (a.u.)
20,TAAGTAACTTAAACATTTGTGATGTGGATTTGGGATGTTACGGAGTCACCTAGTGCAG,3190 fluorescence intensity (a.u.)
21,GCTCTCAAGGCTGCTGATCGCTGACAGACCGACGAGCGCGCGGAGTCACCTAGTGCAG,17900 fluorescence intensity (a.u.)
22,CCACCAAAATATACACACTAGTATTCAAGATTAGTCATCACGGAGTCACCTAGTGCAG,4850 fluorescence intensity (a.u.)
23,TGCACGACAGTTTTGGTTGACGTGGCGTCTATGTGGCTAACGGAGTCACCTAGTGCAG,25400 fluorescence intensity (a.u.)
24,CTGCGATCCGTCCATCGTCTTCCTGTTCCATCGAGGAGTACGGAGTCACCTAGTGCAG,3200 fluorescence intensity (a.u.)
25,TGCAATCAAAGAAAATGGAATCTAGGTATCTTCATCTACCCGGAGTCACCTAGTGCAG,4550 fluorescence intensity (a.u.)
26,ACACACCCCGTGCCACGTCGGCCTCACACCCCTCAGGTTACGGAGTCACCTAGTGCAG,22600 fluorescence intensity (a.u.)
27,AGGAAGGTTATCTTAGTAGGTCATGTTCTTTGGAAACAAACGGAGTCACCTAGTGCAG,3800 fluorescence intensity (a.u.)

# Three entries drawn at random from the list so far:
row,Sequence,binding signal
1,GCCCTTTACAGTGCTCCTACGTGGGCGAGTTGCCAAGTGCCGGAGTCACCTAGTGCAG,3430 fluorescence intensity (a.u.)
19,CTCTCCTACAATAGGATGGACTATGTGACGTAGCACAATGCGGAGTCACCTAGTGCAG,7860 fluorescence intensity (a.u.)
23,TGCACGACAGTTTTGGTTGACGTGGCGTCTATGTGGCTAACGGAGTCACCTAGTGCAG,25400 fluorescence intensity (a.u.)
